Measured values published in patent US11071744B2, “Prodrug salts” (AEROMICS, INC., priority 2013, dated 2021).
Structures can show the parent of a compound that is named as a salt. Where two headings read alike, the source gives them in different places. Some of these results come from one statement about several compounds together.

Method: 15 g is dissolved in 1.2 L of water with 120 mM of sodium hydroxide and extracted with 500 ml ethyl acetate to remove phenol and non acid impurities. The aqueous layer is acidified with concentrated HCl to pH 1.2 and extracted with ethyl acetate 1 L followed by 600 ml. […] Ethyl acetate is removed by adding 100 ml of methanol and evaporating. […] Sample kept at RT.
[1] = solutions of the salts, over 12 hrs

| Compound | phenol formed in solution [1] | phenol formed in solution |
| --- | --- | --- |
| O=C(Nc1cc(C(F)(F)F)cc(C(F)(F)F)c1)c1cc(Cl)ccc1OP(=O)([O-])[O-].[Na+].[Na+] [Compound 5] | less than 1% |  |
| O=C(Nc1cc(C(F)(F)F)cc(C(F)(F)F)c1)c1cc(Cl)ccc1OP(=O)(O)O [bis ethanolamine salt] |  | less than 1% |
| O=C(Nc1cc(C(F)(F)F)cc(C(F)(F)F)c1)c1cc(Cl)ccc1OP(=O)([O-])O.[Na+] [mono sodium salt] | less than 1% |  |
